Measured values as given in US20230174472A1, “THERAPEUTIC USE OF PLEUROMUTILINS” (priority 2020, published 2023).
Where two headings read alike, the source gives them in different places.

Tested on: HEp2 cells
Experiment: cell viability of uninfected HEp2 cells (XTT)
Conditions: read-out: TC50

With `Cc1ccc(CCCO)c(NCc2ccc3nc(NCCCN4CCOCC4)n(Cc4nc(C)ccc4O)c3c2)c1` [TMC353121] the CC50 (Example 8, uninfected drug control wells, 6 days) was > 100 nM, the CC50 (Example 9, MOI 0.0004 series) was > 100 nM and the CC50 (Example 9, MOI 0.0008 series) was > 100 nM. For the same compound, the CC50 (Example 9, MOI 0.001 series) was > 100 nM, the CC50 (Example 9, MOI 0.003 series) was > 100 nM and the CC50 (Example 10, RSV ALONG assay) was > 1000 nM. For the same compound, the CC50 (Example 10, RSV B18537 assay) was > 1000 nM.
